Where “and” joins values, the source holds several entries; their conditions need not be identical. Equal entries are not always repeated. In all, about 580,000 compounds went through this assay and about 6,100 (1.1%) were called active. Entries that show only a call come without a potency. The shares of active, inactive and inconclusive entries below differ from those in the screen. Calls come from the whole dose curve; as a rule, active = well fitted inhibition curve with a large enough effect; inconclusive = small, poorly fitted or top-dose-only effect, or another doubt; inactive = no such curve, though single readings can be large or run the other way. A potency beside an inconclusive call is a rough fit, not a confirmed value.
What follows are compounds tested against Polyunsaturated fatty acid lipoxygenase ALOX12 (Homo sapiens) (UniProt P18054) (assay: Primary qHTS assay for inhibitors of human arachidonate 12S-lipoxygenase (ALOX12): Round 2). Details: purified 12hLO, xylenol orange hydroperoxide absorbance; series mostly up to 108 µM.
Method in brief: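 Purified human 12hLO at 150 nM in 25 mM Hepes, 0.01% Triton X-100, pH 7.0, preincubated 15 min at room temperature with compound. Reaction started with 40 uM arachidonic acid, 30 min at room temperature. Hydroperoxide measured by Fe-xylenol orange, 573/405 nm absorbance ratio.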
Potency is the fitted concentration of half-maximal effect.

Sequences of proteins named here, by UniProt entry; tags and fusion partners are left off. A change or cut given only in a name is not applied to a line headed by its entry.
UniProt P18054: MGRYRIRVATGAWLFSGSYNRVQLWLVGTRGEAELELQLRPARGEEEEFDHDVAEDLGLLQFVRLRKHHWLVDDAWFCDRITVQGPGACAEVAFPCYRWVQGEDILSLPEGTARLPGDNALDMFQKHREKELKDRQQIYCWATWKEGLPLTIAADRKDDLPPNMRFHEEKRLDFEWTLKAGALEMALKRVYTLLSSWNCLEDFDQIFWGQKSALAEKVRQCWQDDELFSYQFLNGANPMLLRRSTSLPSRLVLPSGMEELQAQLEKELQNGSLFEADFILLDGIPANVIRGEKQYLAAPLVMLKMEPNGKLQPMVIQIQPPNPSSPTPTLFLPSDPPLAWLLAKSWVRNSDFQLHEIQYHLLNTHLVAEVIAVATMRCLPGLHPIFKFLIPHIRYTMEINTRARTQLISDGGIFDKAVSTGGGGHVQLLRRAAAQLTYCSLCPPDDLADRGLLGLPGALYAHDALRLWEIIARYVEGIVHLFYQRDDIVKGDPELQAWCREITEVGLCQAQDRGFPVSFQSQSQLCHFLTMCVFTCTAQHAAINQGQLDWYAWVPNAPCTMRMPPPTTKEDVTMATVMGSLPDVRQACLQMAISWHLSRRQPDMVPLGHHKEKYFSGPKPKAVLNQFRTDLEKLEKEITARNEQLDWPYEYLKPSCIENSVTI

**Q.** For `O=C(CCC[C@@H]1[C@H]2CCCN3CCC[C@@H](CN1C(=O)c1cccs1)[C@@H]23)N1CCOCC1`, which Potency is on record?
**A.** inactive

**Q.** How did the Potency turn out when `CC(=O)/C(C=Nc1cc(C(F)(F)F)ccc1Cl)=C(/C)O` was run?
**A.** inactive

**Q.** How did the Potency turn out when `N#Cc1ccc(CN2CCN(Cc3nnsc3Cl)CC2)cc1` was run?
**A.** inconclusive: 70.8 µM [inhibitor, single point]

**Q.** For `CCOc1ccc(-c2nc(C#N)c(NCC3CCCO3)o2)cc1` (stereo unspecified), which Potency is on record?
**A.** inactive

**Q.** Which Potency does the source give for `S=C(NCCc1ccc(Cl)cc1Cl)NC1CCCCC1` here?
**A.** active: 17.8 µM

**Q.** With `O=C(COC(=O)c1ccc(-n2cnnn2)cc1)Nc1cc(Cl)ccc1F` as the compound, how does the Potency read?
**A.** inconclusive: 112 µM [inhibitor, partial curve, poor fit]

**Q.** With `COc1ccc(C(=O)NC2=Nc3ccccc3N=C(C)C2c2ccccc2)cc1` (stereo unspecified) as the compound, how does the Potency read?
**A.** inactive and inconclusive: 5.62 µM [inhibitor, partial curve, poor fit]

**Q.** Which Potency does the source give for `CCOC(=O)c1cc(-c2ccccc2)n(CC(=O)N(C)c2ccc(OC)cc2)c1C` here?
**A.** inactive

**Q.** For `O=C(CSc1ccccc1Cl)NC1CCCc2ccccc21` (stereo unspecified), which Potency is on record?
**A.** inconclusive: 50.1 µM [inhibitor, partial curve, poor fit]

**Q.** How did the Potency turn out when `O=C(Nc1ccccc1)c1ccc(NN=C2CCCCC2)c([N+](=O)[O-])c1` was run?
**A.** inconclusive: 2.51 µM [inhibitor, full curve, poor fit]

**Q.** With `CN(C)CCCn1c(SCC(=O)Nc2sc3c(c2C#N)CCCC3)nnc1-c1ccncc1` as the compound, how does the Potency read?
**A.** inconclusive: 0.891 µM [inhibitor, full curve, poor fit]

**Q.** How did the Potency turn out when `O=S(=O)(c1ccc(N=C2NN=C(c3cc(F)ccc3F)CS2)cc1)N1CCOCC1` was run?
**A.** inconclusive: 44.7 µM [inhibitor, partial curve]

**Q.** `CC1=C(C(=O)c2ccccc2)C(c2ccc(Br)cc2)NC(=O)N1` (stereo unspecified) was tested. Which Potency did it give?
**A.** inconclusive: 89.1 µM [inhibitor, single point]

**Q.** For `CCS(=O)(=O)N1CC(=O)N(c2cccc(Cl)c2C)C(C)(C(=O)NC2CCCCC2)C1` (stereo unspecified), which Potency is on record?
**A.** inactive

**Q.** With `NS(=O)(=O)c1ccc(NC(=O)COc2ncnc3ccccc23)cc1` as the compound, how does the Potency read?
**A.** inactive

**Q.** With `COc1ccc(C2CC(c3cccs3)=Nc3ccccc3S2)cc1` (stereo unspecified) as the compound, how does the Potency read?
**A.** inactive

**Q.** Which Potency does the source give for `CC(=O)NCCNc1cc(C)c2ccc(Cl)cc2n1` here?
**A.** inactive

**Q.** How did the Potency turn out when `CC(C)(C)c1cc(Br)ccc1OCC(=O)Nc1ncn[nH]1` was run?
**A.** inactive

**Q.** For `CCc1nc2ccc(C(=O)NCCNC(C)=O)cn2c1N(CC)CCOC`, which Potency is on record?
**A.** inconclusive: 39.8 µM [inhibitor, partial curve, poor fit]

**Q.** How did the Potency turn out when `CCC(=O)OCC(=O)Nc1cc(C)c(C)cc1[N+](=O)[O-]` was run?
**A.** inactive

**Q.** `Cc1occc1C(=O)Nc1sc2c(c1C(N)=O)CCCCC2` was tested. Which Potency did it give?
**A.** inactive
